Reference: article PMC11951516
For at least one entry, the source does not settle the construct or the ends of the probe. At least one result comes from cells or an extract, where the contact may be indirect.

Sequences of proteins named here, by UniProt entry; tags and fusion partners are left off. A change or cut given only in a name is not applied to a line headed by its entry.
UniProt O43524: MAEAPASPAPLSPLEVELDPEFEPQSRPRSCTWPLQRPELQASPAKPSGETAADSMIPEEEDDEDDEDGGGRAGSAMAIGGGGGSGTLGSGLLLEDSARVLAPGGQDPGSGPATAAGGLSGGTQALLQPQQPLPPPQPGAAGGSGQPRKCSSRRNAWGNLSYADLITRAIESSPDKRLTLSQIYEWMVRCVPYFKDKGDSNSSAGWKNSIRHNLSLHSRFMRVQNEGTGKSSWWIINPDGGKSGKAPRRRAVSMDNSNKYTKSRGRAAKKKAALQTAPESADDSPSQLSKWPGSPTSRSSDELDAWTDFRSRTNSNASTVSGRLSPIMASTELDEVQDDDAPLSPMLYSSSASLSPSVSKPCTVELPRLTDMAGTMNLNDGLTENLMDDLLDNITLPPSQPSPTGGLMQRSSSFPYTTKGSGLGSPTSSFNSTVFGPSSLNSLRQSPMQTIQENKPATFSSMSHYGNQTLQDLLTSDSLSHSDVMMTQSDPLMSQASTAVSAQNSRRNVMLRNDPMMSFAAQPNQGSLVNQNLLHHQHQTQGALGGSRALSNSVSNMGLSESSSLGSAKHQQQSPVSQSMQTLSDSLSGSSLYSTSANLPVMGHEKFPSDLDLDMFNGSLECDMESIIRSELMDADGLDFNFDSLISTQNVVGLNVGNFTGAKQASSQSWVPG

Target: FOXO3 (UniProt O43524)
Experiment: EMSA supershift
Details: HUDEP-2 nuclear extract, anti-FOXO3 antibody; LightShift EMSA kit (Thermo 20148X) per manufacturer's protocol; HUDEP-2 nuclear extract (NE-PER); pH and temperature not stated; protein in an extract

## TTTTAGCCGCCTAAACACTTTGAGCA (double strand) [insA (MT) probe -1368/-1369 HBG2 distal promoter]
  binding result: binds
